Laboratory results from patent US4343816A, “Pharmaceutical composition comprising an acyl-carnitine, for treating peripheral vascular diseases” (priority 1979, dated 1982).
At least one structure is not confirmed: it was looked up by name or label, or the drawing left a doubt.

Experiments:
[1] = tested on: upper extremities (fingers); assay: Photoplethysmographic tracing, angiospastic syndrome of the upper extremities; assay type: in vivo, patient
[2] = tested on: upper extremities (fingers); assay: Rheographic tracing, angiospastic syndrome of the upper extremities; assay type: in vivo, patient; conditions: Case 1; 4 bottles of 250 ml saline containing 500 mg by phleboclysis for 8 days
[3] = tested on: chronic arterial occlusion (legs); assay: Photoplethysmographic tracing, chronic arterial occlusion of the lower extremities; assay type: in vivo; conditions: Case 4; patient; 5 bottles of 250 ml saline containing 500 mg by slow phleboclysis for 20 days
[4] = tested on: chronic arterial occlusion (legs); assay: Rheographic tracing, chronic arterial occlusion of the lower extremities; assay type: in vivo; conditions: Case 4; patient; 5 bottles of 250 ml saline containing 500 mg by slow phleboclysis for 20 days
[5] = tested on: upper extremities (fingers); assay: Cold test, angiospastic syndrome of the upper extremities; assay type: in vivo, patient
[6] = Case 1, phleboclysis for 8 days
[7] = Case 2 (Raynaud's disease), person, 500 mg capsules, 4 per day for four days
[8] = Case 3, 500 mg capsules, 4 per day

CC(=O)OC(CC(=O)[O-])C[N+](C)(C)C (stereo not shown) [acetyl-carnitine]
Control photoplethysmographic tracing: sphygmic amplitude ([1]; Case 1, 4 bottles of 250 ml saline containing 500 mg by phleboclysis for 8 days): Notably increased sphygmic amplitude versus baseline tracing | Control photoplethysmographic tracing: apex morphology [1, 6]: Apex tending to assume normal morphology | Control photoplethysmographic tracing: ascending branch angle [1, 6]: notably diminished ascending branch angle | Control photoplethysmographic tracing: crest time [1, 6]: Moderately reduced crest time | Control photoplethysmographic tracing: descending branch [1, 6]: Convexity persists facing the top of the descending branch | Control photoplethysmographic tracing [1, 7]: completely normal | Control photoplethysmographic tracing: apex and descending branch morphology [1, 8]: tendency of the apex and the descending branch to take on normal morphology | Control photoplethysmographic tracing: crest time [1, 8]: Increased crest time | Control photoplethysmographic tracing: dicrotic wave [1, 8]: dicrotic wave attenuated but present | Control photoplethysmographic tracing: sphygmic amplitude [1, 8]: Markedly increased sphygmic amplitude | Control rheographic tracing [2]: within normal limits | Photoplethysmographic tracing [3]: completely normalized pattern | Rheographic tracing: amplitude and wave morphology [4]: considerably improved | Cold test [5, 6]: positive (but with the appearance of a slight sphygmic wave) | Cold test [5, 7]: negative | Cold test [5, 8]: negative (but with the appearance of a slight sphygmic wave)
